Measurements from publication PMC9982066, “Inhibition of Ehrlichia chaffeensis infection by cell-permeable macrocyclic peptides that bind type IV secretion effector Etf-1” (PNAS Nexus, 2023).
These are yes or no findings as the source states them, for the method shown. Some binding calls cover weakened binding; strength is not graded here.

The chains behind the UniProt entries cited, without tags or fusion partners.
UniProt Q2GG12: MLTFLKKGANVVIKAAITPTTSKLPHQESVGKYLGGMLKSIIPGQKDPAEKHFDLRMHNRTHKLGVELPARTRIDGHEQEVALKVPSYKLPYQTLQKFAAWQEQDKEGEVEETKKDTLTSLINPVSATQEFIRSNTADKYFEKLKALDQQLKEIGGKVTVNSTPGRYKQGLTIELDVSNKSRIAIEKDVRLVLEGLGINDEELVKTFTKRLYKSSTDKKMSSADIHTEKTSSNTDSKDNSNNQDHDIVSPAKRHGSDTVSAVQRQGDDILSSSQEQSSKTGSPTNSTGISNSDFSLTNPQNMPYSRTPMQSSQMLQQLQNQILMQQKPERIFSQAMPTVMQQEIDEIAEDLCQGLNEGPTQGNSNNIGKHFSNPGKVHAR
UniProt Q14457: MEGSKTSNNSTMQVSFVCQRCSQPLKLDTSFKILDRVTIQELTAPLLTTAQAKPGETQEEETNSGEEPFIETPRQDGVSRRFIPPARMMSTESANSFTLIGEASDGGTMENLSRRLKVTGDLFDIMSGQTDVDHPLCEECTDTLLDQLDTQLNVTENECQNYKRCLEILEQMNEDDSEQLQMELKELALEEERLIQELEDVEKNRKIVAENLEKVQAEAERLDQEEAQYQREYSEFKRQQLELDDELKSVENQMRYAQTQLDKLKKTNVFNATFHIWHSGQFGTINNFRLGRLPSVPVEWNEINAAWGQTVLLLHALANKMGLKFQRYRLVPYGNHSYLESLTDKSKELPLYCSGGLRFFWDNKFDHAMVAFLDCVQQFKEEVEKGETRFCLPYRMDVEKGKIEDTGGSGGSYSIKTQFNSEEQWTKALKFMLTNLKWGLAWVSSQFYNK

Biological target: biotinylated full-length Etf-1 protein (E. chaffeensis) (UniProt Q2GG12)
Assay: pull-down; both purified

Q: “recombinant full-length BECN1 protein (Beclin 1) (from UniProt Q14457 1-450)” was tested. Which binding did it give?
A: binds
